Experiment [1] has as its target T1, SFB-tagged DTX2B (wild type) (human) (UniProt Q86UW9).
T1 sequence: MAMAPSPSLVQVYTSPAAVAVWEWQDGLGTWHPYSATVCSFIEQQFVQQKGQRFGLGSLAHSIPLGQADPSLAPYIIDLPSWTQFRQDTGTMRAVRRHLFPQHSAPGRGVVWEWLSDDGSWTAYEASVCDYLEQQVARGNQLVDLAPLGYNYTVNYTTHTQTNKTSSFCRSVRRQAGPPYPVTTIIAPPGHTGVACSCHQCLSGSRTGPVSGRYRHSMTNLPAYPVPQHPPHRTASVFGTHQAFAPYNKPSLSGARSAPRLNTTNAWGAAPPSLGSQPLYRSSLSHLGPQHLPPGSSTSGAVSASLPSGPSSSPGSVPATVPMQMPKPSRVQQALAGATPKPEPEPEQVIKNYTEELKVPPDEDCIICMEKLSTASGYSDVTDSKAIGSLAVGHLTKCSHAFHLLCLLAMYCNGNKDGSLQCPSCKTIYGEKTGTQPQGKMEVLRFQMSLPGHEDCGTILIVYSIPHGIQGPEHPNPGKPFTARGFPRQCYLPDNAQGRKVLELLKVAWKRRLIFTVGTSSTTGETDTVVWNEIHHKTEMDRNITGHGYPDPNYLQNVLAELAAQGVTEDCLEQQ
Description: pull-down; streptavidin pull-down (MagReSyn Streptavidin beads, 1 h, 4 °C) of SFB-tagged bait from lysates of transfected HEK293T cells treated with DMSO and then 2 mM H2O2 for 10 min; lysis in 50 mM Tris-HCl pH 7.5, 150 mM NaCl, 1% NP-40 with PARG inhibitor and olaparib; immunoblotting.

Protein sequences, listed by entry. Tags and fused reporters are not part of them.
UniProt P15927: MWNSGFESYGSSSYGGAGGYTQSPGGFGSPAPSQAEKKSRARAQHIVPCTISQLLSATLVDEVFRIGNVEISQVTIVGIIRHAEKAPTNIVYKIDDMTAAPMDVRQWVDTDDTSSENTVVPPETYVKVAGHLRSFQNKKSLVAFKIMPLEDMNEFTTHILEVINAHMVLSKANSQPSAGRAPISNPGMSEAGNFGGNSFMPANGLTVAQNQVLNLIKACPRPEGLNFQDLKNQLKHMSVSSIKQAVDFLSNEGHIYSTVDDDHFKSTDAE
UniProt P09874: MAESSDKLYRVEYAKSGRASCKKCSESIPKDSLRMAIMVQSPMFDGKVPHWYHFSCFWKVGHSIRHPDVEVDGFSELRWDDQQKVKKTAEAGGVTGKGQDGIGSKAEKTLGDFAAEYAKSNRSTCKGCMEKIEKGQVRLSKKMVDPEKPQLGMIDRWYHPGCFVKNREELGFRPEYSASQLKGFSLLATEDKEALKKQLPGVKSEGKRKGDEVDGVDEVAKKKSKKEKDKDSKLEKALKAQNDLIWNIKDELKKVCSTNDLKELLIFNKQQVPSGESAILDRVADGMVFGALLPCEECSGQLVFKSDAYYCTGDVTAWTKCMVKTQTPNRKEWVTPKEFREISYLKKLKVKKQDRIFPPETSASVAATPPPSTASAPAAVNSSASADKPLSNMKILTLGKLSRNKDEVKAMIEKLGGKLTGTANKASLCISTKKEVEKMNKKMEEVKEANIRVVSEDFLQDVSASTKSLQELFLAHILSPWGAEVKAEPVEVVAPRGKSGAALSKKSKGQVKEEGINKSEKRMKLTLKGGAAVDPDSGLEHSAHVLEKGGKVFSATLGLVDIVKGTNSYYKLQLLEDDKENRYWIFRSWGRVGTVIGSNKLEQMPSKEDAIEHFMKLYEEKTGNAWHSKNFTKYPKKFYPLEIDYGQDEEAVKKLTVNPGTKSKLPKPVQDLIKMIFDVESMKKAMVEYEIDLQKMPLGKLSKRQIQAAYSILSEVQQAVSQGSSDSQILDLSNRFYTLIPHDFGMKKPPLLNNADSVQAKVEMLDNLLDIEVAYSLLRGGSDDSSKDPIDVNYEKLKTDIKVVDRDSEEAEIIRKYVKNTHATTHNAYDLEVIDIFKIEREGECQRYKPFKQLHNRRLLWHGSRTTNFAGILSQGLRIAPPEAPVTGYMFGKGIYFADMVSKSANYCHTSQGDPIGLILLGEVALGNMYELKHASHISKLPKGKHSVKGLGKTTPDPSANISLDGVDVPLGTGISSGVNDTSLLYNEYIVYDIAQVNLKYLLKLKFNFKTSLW

For experiment [2], the target named is T2, SFB-tagged DTX2B DTC∗ (S521A/H535A/H547A) (human) (UniProt Q86UW9).
T2 sequence: T1 sequence with S521A, H535A, H547A
The description is as above.

The target of experiment [3] is T1, SFB-tagged DTX2B (wild type) (human). Nature of the experiment: condition: only cells pretreated with 10 μM olaparib (PARPi); pull-down; as a1, but cells pretreated with 10 μM olaparib (PARPi) for 18 h before 2 mM H2O2 for 10 min.

Residue numbers refer to the chain shown, from its start. These are yes or no findings as the source states them, for the method shown. Binding seen in cells or lysates may run through a third protein. Some entries that bind do so weakly or less than the wild type. Where a sequence is shown, tags or fusion partners need not be part of it.

In the case of “RPA32 (replication protein A 32 kDa subunit) (from UniProt P15927 1-270)”, the binding entry in experiment [1] is reported as “no binding”.

With PARP1 (from UniProt P09874 1-1014), the binding entry in experiment [1] is “binds”; in experiment [2], “binds”; in experiment [3], “no binding”.

For the origin of these results see publication PMC11345397.
